Test results as given in patent US20040191918A1, “Evaluation of bitterness of active drugs” (priority 2003, published 2004).

Tests used:
[1] = In vivo bitterness evaluation by a human panel of tasters; conditions: aqueous solution, concentration per sample (Conc. mg/ml column), scale 1 to 20; for In Vivo(Panel) Bitterness Index Average Index: training samples; for In Vivo(Panel) Bitterness Value Average Index: validation samples
[2] = Bitterness measured with calibrated α Astree electronic tongue (seven ISFET sensors, PLS conversion relationship); conditions: 8 training samples, calculated with the conversion relationship optimising correlation (PLS), scale 1 to 20

Row | SMILES | In Vivo(Panel) Bitterness Index Average Index [1] | “Measured” Bitterness Average Index [2] | In Vivo(Panel) Bitterness Value Average Index [1]
1 | Cn1c(=O)c2c(ncn2C)n(C)c1=O [CA14, Caffeine] | 2.5 | 3.1 | 
2 | CC(=O)Nc1ccc(O)cc1 [PA03, Paracetamol] | 17 | 14.1 | 
3 | Cn1c(=O)c2c(ncn2C)n(C)c1=O [CA16, Caffeine] | 8.5 | 6.3 | 
4 | CN(C)C(=O)C(CCN1CCC(O)(c2ccc(Cl)cc2)CC1)(c1ccccc1)c1ccccc1 [LO21, Loperamide] |  |  | 7.5
5 | NC(N)=Nc1nc(CSCCC(N)=NS(N)(=O)=O)cs1 [FA02, Famotidine] |  |  | 9
6 | C[C@]12C=CC(=O)C=C1CC[C@@H]1[C@@H]2[C@@H](O)C[C@@]2(C)[C@H]1CC[C@]2(O)C(=O)CO [PR26, Prednisolone] | 13.5 | 14.5 | 
7 | CN(C)C(=O)C(CCN1CCC(O)(c2ccc(Cl)cc2)CC1)(c1ccccc1)c1ccccc1 [LO20, Loperamide] |  |  | 14.0
8 | C[C@]12C=CC(=O)C=C1CC[C@@H]1[C@@H]2[C@@H](O)C[C@@]2(C)[C@H]1CC[C@]2(O)C(=O)CO [PR25, Prednisolone] | 17 | 17.3 | 
9 | CC(=O)Nc1ccc(O)cc1 [PA09, Paracetamol] | 10 | 13.6 | 
10 | NC(N)=Nc1nc(CSCCC(N)=NS(N)(=O)=O)cs1 [FA01, Famotidine] |  |  | 4.2

No dose or concentration is given here for some results.
